Assay results as given in US20220064736A1, “UROTHELIAL CANCER AND METHODS OF DETECTION AND TARGETED THERAPY” (THE JOHNS HOPKINS UNIVERSITY, priority 2015, published 2022).
Results are given in words; binding and its absence hold for the method and conditions named. In cells and extracts the contact can be indirect. Some results given as binding are weak or reduced against the parent protein; the word gives no strength.

Chains of the proteins cited; added tags and fusions are not shown.
UniProt Q14145: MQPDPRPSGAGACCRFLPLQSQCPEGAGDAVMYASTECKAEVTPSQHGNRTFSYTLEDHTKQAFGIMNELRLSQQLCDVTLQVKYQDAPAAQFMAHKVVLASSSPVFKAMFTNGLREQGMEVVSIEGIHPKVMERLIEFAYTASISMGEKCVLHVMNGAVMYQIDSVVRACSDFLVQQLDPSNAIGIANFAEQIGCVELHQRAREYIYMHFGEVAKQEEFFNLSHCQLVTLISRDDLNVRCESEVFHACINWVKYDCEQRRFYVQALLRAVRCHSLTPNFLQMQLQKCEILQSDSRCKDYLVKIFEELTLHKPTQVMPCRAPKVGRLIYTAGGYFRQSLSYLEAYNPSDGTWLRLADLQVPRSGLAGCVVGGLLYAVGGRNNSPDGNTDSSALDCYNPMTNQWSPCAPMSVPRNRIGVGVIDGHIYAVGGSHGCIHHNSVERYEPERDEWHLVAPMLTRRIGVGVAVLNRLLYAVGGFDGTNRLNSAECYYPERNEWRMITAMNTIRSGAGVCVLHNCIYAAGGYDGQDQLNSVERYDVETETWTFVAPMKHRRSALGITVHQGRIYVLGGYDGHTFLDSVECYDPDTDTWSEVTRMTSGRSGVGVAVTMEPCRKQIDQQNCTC

How the values were obtained:
[1] = target: Kelch-like ECH-associated protein-1 (Keap1) (UniProt Q14145); assay: in vitro data of the example (co-immunoprecipitation), as told in the discussion
[2] = target: Kelch-like ECH-associated protein-1 (Keap1) (UniProt Q14145); assay: co-immunoprecipitation of endogenous proteins from T24 and BFTC905 cell lysates, western blot

B1: PTB Domain-Containing Engulfment Adaptor Protein1 (GULP1) (other, human, UniProt Q9UBP9 1-304, looked up)
chain: MNRAFSRKKDKTWMHTPEALSKHFIPYNAKFLGSTEVEQPKGTEVVRDAVRKLKFARHIKKSEGQKIPKVELQISIYGVKILEPKTKEVQHNCQLHRISFCADDKTDKRIFTFICKDSESNKHLCYVFDSEKCAEEITLTIGQAFDLAYRKFLESGGKDVETRKQIAGLQKRIQDLETENMELKNKVQDLENQLRITQVSAPPAGSMTPKSPSTDIFDMIPFSPISHQSSMPTRNGTQPPPVPSRSTEIKRDLFGAEPFDPFNCGAADFPPDIQSKLDEMQEGFKMGLTLEGTVFCLDPLDSRC
notes: Endogenous protein from cell lysates; also called engulfment adaptor PTB domain containing 1; human homologue of CED-6
With B1 the binding [1] was “binds” and the binding [2] was “binds”.
